This is one part of the list.

Amino acid sequences for entries named in this document (tags omitted). A change or cut given only in a name is not applied to a line headed by its entry.
UniProt Q9NP74: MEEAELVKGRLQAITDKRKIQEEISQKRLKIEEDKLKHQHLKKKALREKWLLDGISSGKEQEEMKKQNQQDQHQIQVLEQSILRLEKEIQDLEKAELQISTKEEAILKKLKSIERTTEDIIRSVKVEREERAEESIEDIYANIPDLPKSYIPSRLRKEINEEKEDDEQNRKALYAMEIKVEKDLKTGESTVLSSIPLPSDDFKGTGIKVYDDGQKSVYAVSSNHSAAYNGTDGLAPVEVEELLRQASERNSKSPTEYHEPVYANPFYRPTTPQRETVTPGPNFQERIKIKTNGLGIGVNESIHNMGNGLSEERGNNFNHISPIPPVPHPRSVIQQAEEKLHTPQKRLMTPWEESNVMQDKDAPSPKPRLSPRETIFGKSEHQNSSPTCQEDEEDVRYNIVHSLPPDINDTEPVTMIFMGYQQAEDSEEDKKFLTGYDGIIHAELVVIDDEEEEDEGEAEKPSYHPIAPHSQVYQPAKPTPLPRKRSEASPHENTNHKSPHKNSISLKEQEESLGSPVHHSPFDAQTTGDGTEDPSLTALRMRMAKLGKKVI
UniProt O75914, whole entry, looked up: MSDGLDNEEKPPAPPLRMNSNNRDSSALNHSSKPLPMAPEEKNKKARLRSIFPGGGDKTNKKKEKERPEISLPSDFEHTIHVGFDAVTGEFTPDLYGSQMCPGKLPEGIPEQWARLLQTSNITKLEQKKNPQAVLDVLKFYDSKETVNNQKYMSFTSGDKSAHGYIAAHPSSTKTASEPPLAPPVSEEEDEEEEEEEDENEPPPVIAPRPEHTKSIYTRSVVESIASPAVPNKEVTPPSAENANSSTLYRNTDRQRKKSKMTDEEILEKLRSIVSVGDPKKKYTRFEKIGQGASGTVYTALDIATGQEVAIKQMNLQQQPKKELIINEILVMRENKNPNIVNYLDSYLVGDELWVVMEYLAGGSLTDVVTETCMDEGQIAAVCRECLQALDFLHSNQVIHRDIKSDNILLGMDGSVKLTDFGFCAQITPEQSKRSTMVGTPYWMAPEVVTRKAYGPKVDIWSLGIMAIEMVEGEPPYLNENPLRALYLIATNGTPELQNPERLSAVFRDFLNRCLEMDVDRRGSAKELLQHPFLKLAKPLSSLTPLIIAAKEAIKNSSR
UniProt P50479: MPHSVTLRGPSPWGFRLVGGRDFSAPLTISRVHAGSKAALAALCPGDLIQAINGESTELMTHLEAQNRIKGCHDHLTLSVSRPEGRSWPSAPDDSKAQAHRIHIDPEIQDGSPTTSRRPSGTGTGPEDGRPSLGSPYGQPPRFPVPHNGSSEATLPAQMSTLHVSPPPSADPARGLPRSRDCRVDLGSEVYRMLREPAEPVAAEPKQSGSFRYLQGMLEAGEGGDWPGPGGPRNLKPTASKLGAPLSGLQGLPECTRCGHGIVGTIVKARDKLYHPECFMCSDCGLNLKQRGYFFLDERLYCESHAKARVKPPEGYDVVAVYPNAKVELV
UniProt Q8NCN5: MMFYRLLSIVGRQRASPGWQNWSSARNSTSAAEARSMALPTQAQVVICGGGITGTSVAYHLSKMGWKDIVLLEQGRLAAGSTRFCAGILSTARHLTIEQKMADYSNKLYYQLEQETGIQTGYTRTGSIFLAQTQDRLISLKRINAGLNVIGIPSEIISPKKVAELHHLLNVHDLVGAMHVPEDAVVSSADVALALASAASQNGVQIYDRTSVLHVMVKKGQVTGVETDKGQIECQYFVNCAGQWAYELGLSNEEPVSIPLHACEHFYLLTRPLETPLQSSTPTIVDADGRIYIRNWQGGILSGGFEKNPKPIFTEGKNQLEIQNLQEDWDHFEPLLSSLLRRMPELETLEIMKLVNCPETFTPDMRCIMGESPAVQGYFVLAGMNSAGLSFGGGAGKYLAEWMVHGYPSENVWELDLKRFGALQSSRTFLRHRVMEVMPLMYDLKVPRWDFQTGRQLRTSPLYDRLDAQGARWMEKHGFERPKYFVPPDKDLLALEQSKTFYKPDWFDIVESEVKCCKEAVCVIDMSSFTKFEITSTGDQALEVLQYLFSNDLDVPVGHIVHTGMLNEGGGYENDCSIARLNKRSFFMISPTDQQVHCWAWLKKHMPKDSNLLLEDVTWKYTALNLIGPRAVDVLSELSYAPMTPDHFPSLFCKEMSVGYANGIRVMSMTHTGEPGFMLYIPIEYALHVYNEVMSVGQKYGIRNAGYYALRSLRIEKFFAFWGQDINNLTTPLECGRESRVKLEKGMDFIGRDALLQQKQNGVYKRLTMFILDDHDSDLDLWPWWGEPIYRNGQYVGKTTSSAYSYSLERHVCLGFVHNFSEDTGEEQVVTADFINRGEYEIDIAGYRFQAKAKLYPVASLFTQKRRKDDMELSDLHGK
UniProt O00151: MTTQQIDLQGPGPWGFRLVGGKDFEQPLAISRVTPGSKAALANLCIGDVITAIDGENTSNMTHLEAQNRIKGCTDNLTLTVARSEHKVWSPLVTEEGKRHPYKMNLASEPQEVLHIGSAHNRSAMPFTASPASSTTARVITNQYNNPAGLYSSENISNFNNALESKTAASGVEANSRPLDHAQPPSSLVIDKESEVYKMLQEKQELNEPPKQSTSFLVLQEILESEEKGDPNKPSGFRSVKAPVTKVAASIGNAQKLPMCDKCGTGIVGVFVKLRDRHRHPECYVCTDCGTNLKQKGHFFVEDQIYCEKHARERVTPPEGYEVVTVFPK
UniProt Q29RF7: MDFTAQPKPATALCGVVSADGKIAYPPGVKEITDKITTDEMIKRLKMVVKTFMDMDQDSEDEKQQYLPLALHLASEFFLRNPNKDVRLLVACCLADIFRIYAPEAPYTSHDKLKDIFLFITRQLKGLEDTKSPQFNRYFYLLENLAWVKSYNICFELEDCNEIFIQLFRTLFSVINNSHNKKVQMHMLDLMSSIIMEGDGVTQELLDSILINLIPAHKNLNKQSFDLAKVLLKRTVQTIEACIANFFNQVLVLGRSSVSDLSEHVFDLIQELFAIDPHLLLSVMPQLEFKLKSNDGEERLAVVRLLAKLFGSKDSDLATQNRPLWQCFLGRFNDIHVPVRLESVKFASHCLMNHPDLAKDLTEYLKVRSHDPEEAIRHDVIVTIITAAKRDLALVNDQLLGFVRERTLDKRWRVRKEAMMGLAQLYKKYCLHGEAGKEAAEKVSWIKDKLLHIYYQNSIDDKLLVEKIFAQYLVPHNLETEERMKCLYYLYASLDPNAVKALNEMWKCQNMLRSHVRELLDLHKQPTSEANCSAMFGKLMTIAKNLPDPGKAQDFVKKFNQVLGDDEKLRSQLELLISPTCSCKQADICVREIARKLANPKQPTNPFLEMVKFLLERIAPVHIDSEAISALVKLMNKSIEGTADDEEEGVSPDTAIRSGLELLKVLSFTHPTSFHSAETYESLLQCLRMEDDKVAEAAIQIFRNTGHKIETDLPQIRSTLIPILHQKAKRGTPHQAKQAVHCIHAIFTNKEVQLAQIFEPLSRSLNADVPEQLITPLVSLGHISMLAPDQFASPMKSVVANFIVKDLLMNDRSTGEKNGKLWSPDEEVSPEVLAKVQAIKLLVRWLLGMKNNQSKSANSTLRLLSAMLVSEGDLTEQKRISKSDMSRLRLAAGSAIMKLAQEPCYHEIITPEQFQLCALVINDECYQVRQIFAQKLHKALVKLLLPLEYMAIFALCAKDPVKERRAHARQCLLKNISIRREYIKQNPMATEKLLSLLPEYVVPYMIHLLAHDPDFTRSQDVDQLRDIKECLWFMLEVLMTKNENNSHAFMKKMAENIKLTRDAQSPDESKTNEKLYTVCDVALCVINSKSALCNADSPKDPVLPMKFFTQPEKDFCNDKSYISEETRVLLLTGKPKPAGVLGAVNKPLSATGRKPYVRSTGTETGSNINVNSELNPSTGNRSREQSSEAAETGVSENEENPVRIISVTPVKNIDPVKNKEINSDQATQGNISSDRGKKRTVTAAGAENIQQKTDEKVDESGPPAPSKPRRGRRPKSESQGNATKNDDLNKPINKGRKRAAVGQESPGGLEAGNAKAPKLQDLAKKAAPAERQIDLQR
UniProt Q13310, whole entry, looked up: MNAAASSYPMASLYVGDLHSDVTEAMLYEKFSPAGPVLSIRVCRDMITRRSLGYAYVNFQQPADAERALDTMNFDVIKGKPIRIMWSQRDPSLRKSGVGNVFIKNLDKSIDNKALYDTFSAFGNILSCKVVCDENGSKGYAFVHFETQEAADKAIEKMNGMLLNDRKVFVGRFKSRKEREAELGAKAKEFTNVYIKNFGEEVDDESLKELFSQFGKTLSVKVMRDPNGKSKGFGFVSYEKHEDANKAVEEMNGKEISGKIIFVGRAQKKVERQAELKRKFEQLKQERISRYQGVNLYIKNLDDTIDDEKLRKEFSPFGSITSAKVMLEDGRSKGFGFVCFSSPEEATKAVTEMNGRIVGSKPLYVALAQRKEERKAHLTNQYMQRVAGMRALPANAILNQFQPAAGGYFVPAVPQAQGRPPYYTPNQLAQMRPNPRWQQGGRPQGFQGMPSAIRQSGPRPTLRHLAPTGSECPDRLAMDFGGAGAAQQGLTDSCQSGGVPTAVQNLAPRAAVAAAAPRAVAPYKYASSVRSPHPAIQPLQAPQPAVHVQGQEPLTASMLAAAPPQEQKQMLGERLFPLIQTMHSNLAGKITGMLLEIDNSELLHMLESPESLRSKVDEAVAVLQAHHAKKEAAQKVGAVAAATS
UniProt P05166: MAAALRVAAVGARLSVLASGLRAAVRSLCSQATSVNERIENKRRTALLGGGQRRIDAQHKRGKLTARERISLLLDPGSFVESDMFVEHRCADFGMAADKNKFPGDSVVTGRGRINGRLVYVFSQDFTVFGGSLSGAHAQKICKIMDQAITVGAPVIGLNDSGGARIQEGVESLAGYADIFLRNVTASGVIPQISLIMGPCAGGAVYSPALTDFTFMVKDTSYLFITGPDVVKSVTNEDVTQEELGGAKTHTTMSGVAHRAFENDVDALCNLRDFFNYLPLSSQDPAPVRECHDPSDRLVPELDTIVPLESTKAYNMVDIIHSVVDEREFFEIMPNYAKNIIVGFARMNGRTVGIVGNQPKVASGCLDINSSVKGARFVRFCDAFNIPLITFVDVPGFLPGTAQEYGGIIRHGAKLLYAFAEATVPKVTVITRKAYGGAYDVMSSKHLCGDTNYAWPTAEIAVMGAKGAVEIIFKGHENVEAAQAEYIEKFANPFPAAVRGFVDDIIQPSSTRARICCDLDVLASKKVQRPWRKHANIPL
UniProt Q8NBM8: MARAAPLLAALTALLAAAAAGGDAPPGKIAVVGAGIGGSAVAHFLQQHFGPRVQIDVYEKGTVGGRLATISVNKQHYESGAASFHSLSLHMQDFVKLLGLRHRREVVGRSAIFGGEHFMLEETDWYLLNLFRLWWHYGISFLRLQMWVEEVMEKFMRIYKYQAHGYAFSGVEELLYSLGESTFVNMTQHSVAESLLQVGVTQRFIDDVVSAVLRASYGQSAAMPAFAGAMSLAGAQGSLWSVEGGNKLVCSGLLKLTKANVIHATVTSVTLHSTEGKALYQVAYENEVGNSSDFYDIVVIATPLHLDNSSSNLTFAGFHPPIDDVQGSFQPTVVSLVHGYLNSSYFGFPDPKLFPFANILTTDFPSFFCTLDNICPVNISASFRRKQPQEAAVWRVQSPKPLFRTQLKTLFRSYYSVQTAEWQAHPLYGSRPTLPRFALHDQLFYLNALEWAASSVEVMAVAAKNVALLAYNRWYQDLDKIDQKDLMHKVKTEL
UniProt Q9BYG5: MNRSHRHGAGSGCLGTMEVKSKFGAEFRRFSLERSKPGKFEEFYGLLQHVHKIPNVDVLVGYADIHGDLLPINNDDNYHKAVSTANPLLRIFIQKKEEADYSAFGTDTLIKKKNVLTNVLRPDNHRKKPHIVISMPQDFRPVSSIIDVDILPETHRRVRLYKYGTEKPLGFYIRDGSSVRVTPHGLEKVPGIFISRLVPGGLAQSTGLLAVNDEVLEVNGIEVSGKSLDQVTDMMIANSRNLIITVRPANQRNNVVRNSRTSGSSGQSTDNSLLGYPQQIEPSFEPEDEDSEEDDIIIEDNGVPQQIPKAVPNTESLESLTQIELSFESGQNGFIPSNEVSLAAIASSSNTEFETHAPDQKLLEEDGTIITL
UniProt P30101, whole entry, looked up: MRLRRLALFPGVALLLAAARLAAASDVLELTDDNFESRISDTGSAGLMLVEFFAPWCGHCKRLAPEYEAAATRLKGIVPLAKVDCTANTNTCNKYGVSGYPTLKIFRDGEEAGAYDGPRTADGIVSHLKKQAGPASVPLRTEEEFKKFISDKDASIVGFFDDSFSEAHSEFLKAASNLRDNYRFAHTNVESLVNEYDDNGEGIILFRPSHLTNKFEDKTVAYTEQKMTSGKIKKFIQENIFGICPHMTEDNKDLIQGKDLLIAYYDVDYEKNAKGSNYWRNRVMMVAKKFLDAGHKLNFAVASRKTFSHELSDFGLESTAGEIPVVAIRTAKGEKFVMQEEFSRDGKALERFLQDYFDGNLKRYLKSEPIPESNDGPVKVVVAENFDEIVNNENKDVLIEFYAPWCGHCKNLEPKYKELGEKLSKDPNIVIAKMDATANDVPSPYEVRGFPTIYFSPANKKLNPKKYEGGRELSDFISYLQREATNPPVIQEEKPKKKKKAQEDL

Compound in one assay: CC1=C2C(=CC=C1)N=C(N(C2=O)C3=CC=CC=C3C)CN4C=NC5=C(N=CN=C54)N
In words: log2 fold change, soluble protein after heating vs DMSO (PISA); higher = thermal stabilisation; K562 cells, 10 uM, 30 min; active = over 0.2 and 3.5 SD of the protein, either way, in both replicates (recomputed). Put shortly:
(§1)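 K562 cells at 2×10^6 cells/mL were treated with 10 μM compound for 30 min. Aliquots were heated for 3 min across 48°C-58°C, pooled, and extracted in PBS with 0.5% NP-40 at 4°C; soluble protein was the supernatant after 21,000xg for 90 min. Soluble protein was quantified by TMTpro 16plex LC-MS/MS with channel sums equalised, and reported as log2 fold change in thermal stability against DMSO controls, with values from duplicates.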
As for PDIA6 isoform 2 (UniProt Q15084), the log2 fold change was inactive: -0.042.

Consider PALMD (UniProt Q9NP74), for which the log2 fold change was inactive: 0.046.

Turning to PCYT1A (UniProt P49585), the log2 fold change was inactive: 0.056.

For the target PAK3 isoform 3 (UniProt O75914), the log2 fold change was inactive: -0.032.

PDCD6 (UniProt O75340): the log2 fold change was inactive: 0.107.

PDIA3 (UniProt H7BZJ3): the log2 fold change was inactive: 0.236.

Consider PCNP (UniProt Q8WW12), for which the log2 fold change is inactive: -0.021.

For PDLIM4 (UniProt P50479), the log2 fold change was inactive: 0.057.

In the case of PEX14 (UniProt O75381), the log2 fold change was inactive: -0.022.

For PBXIP1 (UniProt Q96AQ6), the log2 fold change was inactive: 0.048.

Turning to PDCD6IP (UniProt Q8WUM4), the log2 fold change is inactive: 0.119.

Take PAPSS1 (UniProt O43252): the log2 fold change is inactive: 0.009.

PAPOLA (UniProt P51003): the log2 fold change is inactive: 0.007.

PARVB (UniProt Q9HBI1): the log2 fold change is inactive: 0.057.

As for PEA15 isoform 2 (UniProt Q15121), the log2 fold change was inactive: 0.116.

Take PDPR (UniProt Q8NCN5): the log2 fold change is inactive: 0.034.

Regarding PANK2 (UniProt Q9BZ23), the log2 fold change is inactive: 0.035.

For PDLIM1 (UniProt O00151), the log2 fold change is inactive: -0.017.

Regarding PDS5A (UniProt Q29RF7), the log2 fold change was inactive: 0.096.

As for PABPC4 isoform 3 (UniProt Q13310), the log2 fold change was inactive: -0.057.

PEF1 (UniProt Q9UBV8): the log2 fold change was inactive: 0.047.

For the target PAXIP1 (UniProt Q6ZW49), the log2 fold change is inactive: 0.096.

Consider PCCB isoform 2 (UniProt P05166), for which the log2 fold change is inactive: -0.006.

For PDK1 (UniProt Q15118), the log2 fold change was inactive: 0.091.

As to PES1 (UniProt O00541), the log2 fold change was inactive: -0.103.

As to PCNT (UniProt O95613), the log2 fold change was inactive: 0.11.

As for PEX11B (UniProt O96011), the log2 fold change is inactive: -0.01.

Turning to PCYOX1L (UniProt Q8NBM8), the log2 fold change was inactive: 0.034.

With PCTP (UniProt Q9UKL6), the log2 fold change is inactive: 0.028.

For the target PARP1 (UniProt P09874), the log2 fold change is inactive: 0.182.

For PARD6B (UniProt Q9BYG5), the log2 fold change was inactive: 0.079.

PAK2 (UniProt Q13177): the log2 fold change is inactive: 0.023.

PDIA3 (UniProt P30101): the log2 fold change was inactive: -0.086.

Regarding PELP1 (UniProt Q8IZL8), the log2 fold change is inactive: -0.028.

As for PDCD4 (UniProt Q53EL6), the log2 fold change was inactive: 0.053.

Turning to PAFAH2 (UniProt Q99487), the log2 fold change was inactive: 0.066.

Consider PCBP1 (UniProt Q15365), for which the log2 fold change is inactive: 0.048.

As to PCMT1 isoform 2 (UniProt P22061), the log2 fold change is inactive: 0.06.

Compound in the next assay: Cc1sc2c(c1C)C(c1ccc(Cl)cc1)=N[C@@H](CC(=O)OC(C)(C)C)c1nnc(C)n1-2
Described as above. An outline of the steps:
as §1
On to PDIA6 isoform 2 (UniProt Q15084), for which the log2 fold change was inactive: 0.027.

As for PALMD (UniProt Q9NP74), the log2 fold change is inactive: 0.018.

As to PCYT1A (UniProt P49585), the log2 fold change is inactive: -0.012.

With PAK3 isoform 3 (UniProt O75914), the log2 fold change was inactive: -0.023.

On to PDCD6 (UniProt O75340), for which the log2 fold change is inactive: -0.052.

As to PDIA3 (UniProt H7BZJ3), the log2 fold change was inactive: -0.078.

Turning to PCNP (UniProt Q8WW12), the log2 fold change is inactive: 0.025.

PDLIM4 (UniProt P50479): the log2 fold change was inactive: -0.043.

PEX14 (UniProt O75381): the log2 fold change is inactive: -0.011.

For the target PBXIP1 (UniProt Q96AQ6), the log2 fold change was inactive: -0.039.

In the case of PDCD6IP (UniProt Q8WUM4), the log2 fold change was inactive: -0.029.

As for PAPSS1 (UniProt O43252), the log2 fold change is inactive: -0.004.

Consider PAPOLA (UniProt P51003), for which the log2 fold change is inactive: -0.058.

Take PARVB (UniProt Q9HBI1): the log2 fold change was inactive: 0.014.

PEA15 isoform 2 (UniProt Q15121): the log2 fold change is inactive: -0.063.

Regarding PDPR (UniProt Q8NCN5), the log2 fold change was inactive: -0.019.

PANK2 (UniProt Q9BZ23): the log2 fold change is inactive: 0.01.

In the case of PDLIM1 (UniProt O00151), the log2 fold change was inactive: -0.031.

As for PDS5A (UniProt Q29RF7), the log2 fold change is inactive: 0.038.

With PABPC4 isoform 3 (UniProt Q13310), the log2 fold change was inactive: 0.139.

Consider PEF1 (UniProt Q9UBV8), for which the log2 fold change was inactive: -0.178.

PAXIP1 (UniProt Q6ZW49): the log2 fold change is inactive: 0.133.

Turning to PCCB isoform 2 (UniProt P05166), the log2 fold change is inactive: -0.026.

For PDK1 (UniProt Q15118), the log2 fold change was inactive: -0.018.

On to PES1 (UniProt O00541), for which the log2 fold change is inactive: 0.025.

With PCNT (UniProt O95613), the log2 fold change was inactive: 0.064.

With PEX11B (UniProt O96011), the log2 fold change is inactive: -0.008.

Regarding PCYOX1L (UniProt Q8NBM8), the log2 fold change is inactive: 0.014.

For the target PCTP (UniProt Q9UKL6), the log2 fold change was inactive: -0.023.

Turning to PARP1 (UniProt P09874), the log2 fold change is inactive: -0.069.

With PARD6B (UniProt Q9BYG5), the log2 fold change was inactive: 0.08.

With PAK2 (UniProt Q13177), the log2 fold change was inactive: -0.008.

Consider PDIA3 (UniProt P30101), for which the log2 fold change is inactive: -0.015.

With PELP1 (UniProt Q8IZL8), the log2 fold change was inactive: -0.044.

Turning to PDCD4 (UniProt Q53EL6), the log2 fold change was inactive: -0.167.

With PAFAH2 (UniProt Q99487), the log2 fold change is inactive: -0.117.

PCBP1 (UniProt Q15365): the log2 fold change was inactive: -0.03.

As for PCMT1 isoform 2 (UniProt P22061), the log2 fold change is inactive: -0.023.

The values above are taken from the supplement of paper PMC10849652.
